Test results reported in paper PMC13034042.
Results are given in words; binding and its absence hold for the method and conditions named. In cells and extracts the contact can be indirect. These calls come from enrichment with a bait or labelling near it, and not all partners need be listed. For some of these results: Where a sequence is shown, tags or fusion partners need not be part of it. Values belong to the substance of their own block, whether it stands above or below them.

Sequences of proteins named here, by UniProt entry; tags and fusion partners are left off. A change or cut given only in a name is not applied to a line headed by its entry.
UniProt P05748: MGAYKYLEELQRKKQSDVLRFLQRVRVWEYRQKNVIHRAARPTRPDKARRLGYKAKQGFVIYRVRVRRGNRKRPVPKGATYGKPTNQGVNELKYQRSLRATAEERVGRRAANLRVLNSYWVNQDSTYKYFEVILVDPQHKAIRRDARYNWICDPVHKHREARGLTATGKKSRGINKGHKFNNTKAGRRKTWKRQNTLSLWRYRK
UniProt P04449: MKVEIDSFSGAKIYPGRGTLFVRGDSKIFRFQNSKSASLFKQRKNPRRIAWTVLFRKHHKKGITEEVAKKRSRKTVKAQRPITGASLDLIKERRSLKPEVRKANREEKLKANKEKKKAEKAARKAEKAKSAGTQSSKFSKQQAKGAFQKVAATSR
UniProt P04650: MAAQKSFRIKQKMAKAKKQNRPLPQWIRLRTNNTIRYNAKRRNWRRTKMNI
UniProt P0CX27: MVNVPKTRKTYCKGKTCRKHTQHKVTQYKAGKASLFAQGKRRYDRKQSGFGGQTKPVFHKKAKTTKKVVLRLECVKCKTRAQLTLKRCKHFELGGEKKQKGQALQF
UniProt P17076: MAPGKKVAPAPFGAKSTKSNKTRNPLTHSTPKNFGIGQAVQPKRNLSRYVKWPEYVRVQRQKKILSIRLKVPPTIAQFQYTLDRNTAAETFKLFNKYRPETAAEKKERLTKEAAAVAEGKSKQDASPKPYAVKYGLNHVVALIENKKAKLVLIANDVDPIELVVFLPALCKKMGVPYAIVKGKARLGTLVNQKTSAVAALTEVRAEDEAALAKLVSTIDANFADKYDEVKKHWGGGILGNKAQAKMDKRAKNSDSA
UniProt P14126: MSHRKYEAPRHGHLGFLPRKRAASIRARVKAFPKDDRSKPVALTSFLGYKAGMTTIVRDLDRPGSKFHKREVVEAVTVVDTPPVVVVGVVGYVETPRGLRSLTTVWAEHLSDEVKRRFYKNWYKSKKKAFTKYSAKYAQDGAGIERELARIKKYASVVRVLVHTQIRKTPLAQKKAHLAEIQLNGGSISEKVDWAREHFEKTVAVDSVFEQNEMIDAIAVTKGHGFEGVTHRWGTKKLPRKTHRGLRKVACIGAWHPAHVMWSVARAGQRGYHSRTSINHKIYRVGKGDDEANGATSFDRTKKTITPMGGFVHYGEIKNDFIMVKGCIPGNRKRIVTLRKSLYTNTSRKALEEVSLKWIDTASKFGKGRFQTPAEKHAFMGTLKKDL
UniProt P0CX44: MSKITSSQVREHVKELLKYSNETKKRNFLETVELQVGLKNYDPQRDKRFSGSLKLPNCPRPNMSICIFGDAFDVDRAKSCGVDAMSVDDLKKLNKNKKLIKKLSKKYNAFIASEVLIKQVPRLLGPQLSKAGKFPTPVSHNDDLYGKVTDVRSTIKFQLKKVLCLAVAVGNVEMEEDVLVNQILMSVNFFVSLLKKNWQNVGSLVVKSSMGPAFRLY
UniProt P53067: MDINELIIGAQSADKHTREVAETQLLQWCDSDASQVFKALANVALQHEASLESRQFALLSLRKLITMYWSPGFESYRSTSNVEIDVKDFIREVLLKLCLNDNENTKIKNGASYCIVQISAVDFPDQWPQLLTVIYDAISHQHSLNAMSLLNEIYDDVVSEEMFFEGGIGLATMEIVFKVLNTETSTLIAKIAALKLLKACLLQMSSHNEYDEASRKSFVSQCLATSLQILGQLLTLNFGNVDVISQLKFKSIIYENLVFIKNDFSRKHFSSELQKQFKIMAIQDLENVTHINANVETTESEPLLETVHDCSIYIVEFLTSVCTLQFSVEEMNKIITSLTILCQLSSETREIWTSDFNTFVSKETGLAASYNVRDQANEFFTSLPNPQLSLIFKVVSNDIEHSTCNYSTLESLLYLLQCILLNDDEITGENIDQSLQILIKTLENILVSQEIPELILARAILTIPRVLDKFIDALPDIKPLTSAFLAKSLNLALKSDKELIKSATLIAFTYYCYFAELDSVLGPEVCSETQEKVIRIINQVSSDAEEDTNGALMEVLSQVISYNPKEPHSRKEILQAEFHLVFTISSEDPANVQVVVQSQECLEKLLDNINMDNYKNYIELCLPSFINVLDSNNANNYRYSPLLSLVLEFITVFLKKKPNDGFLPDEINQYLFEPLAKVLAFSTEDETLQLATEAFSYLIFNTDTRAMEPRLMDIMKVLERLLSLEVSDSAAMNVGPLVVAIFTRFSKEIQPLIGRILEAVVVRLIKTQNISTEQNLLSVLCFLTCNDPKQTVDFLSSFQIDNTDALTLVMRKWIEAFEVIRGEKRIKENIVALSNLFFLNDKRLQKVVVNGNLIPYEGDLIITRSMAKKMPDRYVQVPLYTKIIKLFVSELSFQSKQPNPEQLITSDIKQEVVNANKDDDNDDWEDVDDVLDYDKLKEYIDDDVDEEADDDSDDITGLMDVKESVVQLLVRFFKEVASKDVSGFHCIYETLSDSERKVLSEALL
UniProt P25293: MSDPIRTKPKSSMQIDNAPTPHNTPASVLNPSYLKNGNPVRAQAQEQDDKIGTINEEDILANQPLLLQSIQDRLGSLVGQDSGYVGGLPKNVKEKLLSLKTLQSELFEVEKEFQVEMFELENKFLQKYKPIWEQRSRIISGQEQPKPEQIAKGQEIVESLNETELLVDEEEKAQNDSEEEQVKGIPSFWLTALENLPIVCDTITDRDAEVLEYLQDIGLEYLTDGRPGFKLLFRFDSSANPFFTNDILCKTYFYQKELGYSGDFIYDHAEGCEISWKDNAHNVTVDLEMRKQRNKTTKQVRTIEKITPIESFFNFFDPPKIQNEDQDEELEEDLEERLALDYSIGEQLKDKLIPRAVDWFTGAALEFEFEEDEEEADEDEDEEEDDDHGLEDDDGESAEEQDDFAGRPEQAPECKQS
UniProt Q12690: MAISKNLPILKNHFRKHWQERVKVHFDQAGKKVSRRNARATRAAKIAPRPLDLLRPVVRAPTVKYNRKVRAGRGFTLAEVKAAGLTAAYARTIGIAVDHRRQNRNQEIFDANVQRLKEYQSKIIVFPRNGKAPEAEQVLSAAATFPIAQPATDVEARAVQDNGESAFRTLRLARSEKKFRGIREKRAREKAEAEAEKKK
UniProt P0CX42: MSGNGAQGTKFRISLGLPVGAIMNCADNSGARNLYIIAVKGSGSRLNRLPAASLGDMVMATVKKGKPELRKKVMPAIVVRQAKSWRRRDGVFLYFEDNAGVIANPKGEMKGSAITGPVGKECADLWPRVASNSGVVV
UniProt Q02821: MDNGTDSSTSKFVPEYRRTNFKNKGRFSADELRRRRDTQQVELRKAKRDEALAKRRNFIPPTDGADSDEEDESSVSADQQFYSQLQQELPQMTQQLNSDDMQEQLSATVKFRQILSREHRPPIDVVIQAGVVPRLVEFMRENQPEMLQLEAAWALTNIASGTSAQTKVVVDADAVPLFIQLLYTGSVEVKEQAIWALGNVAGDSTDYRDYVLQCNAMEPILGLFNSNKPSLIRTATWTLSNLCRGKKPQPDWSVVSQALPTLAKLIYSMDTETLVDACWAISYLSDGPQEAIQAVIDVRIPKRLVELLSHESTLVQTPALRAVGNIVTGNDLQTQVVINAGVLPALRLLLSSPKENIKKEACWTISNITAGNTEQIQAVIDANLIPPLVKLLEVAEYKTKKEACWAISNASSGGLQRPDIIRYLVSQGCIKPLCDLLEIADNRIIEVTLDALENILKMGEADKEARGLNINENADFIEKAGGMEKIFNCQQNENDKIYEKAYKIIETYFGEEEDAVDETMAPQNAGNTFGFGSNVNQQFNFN
UniProt Q07915: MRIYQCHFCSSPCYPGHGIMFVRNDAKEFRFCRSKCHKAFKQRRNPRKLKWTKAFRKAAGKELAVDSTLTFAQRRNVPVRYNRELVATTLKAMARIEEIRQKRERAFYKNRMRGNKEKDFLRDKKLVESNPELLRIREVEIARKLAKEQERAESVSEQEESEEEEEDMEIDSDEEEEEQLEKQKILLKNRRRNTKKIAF

Assays:
Assay in all cases: proximity labelling; TurboID-fused bait expressed from a centromeric CUP1-promoter plasmid in S. cerevisiae YDK11-5A; 500 μM copper sulphate and 500 μM biotin for 1 h at 30°C; biotinylated proteins purified on streptavidin agarose and identified by LC-MS/MS; enrichment against the GFP-TurboID and NLS-GFP-TurboID type controls
[1] = target: T1, TurboID-tagged Bcp1 (both baits) (S. cerevisiae) (UniProt Q06338)
T1 sequence: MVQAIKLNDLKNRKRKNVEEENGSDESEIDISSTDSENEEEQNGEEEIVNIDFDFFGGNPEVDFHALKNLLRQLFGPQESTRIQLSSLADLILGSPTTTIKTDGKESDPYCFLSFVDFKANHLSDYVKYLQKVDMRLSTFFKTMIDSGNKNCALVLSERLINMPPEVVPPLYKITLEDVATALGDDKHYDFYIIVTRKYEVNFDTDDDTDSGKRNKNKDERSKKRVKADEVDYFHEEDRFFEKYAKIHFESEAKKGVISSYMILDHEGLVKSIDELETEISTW

[2] = target: T2, TurboID-Rpl6a (S. cerevisiae) (UniProt Q02326)
T2 sequence: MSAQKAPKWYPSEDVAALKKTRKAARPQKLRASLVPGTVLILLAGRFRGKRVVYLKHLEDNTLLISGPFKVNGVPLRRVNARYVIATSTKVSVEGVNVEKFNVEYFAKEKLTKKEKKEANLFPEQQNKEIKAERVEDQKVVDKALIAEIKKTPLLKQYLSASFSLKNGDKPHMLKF

[3] = target: TurboID-tagged Rpl15 (S. cerevisiae) (UniProt P05748)
[4] = target: TurboID-tagged Rpl24 (S. cerevisiae) (UniProt P04449)
[5] = target: TurboID-tagged Rpl39 (S. cerevisiae) (UniProt P04650)
[6] = target: TurboID-tagged Rpl42 (S. cerevisiae) (UniProt P0CX27)
[7] = target: TurboID-tagged Rpl8 (both baits) (S. cerevisiae) (UniProt P17076)
[8] = target: Rpl3-TurboID (S. cerevisiae) (UniProt P14126)
[9] = target: T3, TurboID-tagged Acl4 (both baits) (S. cerevisiae) (UniProt Q03771)
T3 sequence: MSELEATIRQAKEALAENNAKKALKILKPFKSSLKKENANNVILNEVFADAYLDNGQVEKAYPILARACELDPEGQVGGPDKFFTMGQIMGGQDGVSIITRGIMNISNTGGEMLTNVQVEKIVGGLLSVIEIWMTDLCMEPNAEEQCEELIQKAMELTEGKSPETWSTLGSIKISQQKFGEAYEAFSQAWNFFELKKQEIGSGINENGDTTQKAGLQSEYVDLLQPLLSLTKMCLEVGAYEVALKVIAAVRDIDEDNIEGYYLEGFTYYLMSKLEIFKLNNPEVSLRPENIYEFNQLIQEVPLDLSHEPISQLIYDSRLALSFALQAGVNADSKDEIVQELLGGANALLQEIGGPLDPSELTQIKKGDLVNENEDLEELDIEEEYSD

[10] = target: Rpl1b-TurboID (S. cerevisiae) (UniProt P0CX44)
[11] = target: TurboID-Rpl1b (S. cerevisiae) (UniProt P0CX44)

Substance: Kap114 (endogenous) (from UniProt P53067 1-1004)
binding [2]: binds

Substance: Nap1 (endogenous) (from UniProt P25293 1-417)
binding [3]: binds
binding [4]: binds
binding [5]: binds
binding [6]: binds
binding [7]: binds

Substance: Rpl13 (endogenous) (from UniProt Q12690)
binding [10]: binds
binding [11]: binds

Substance: Rpl23 (endogenous) (from UniProt P0CX42 1-137)
binding [1]: binds

The remaining lines, values ahead:

binding [1]: binds
Substance: Kap60 (endogenous) (from UniProt Q02821 1-542)

binding [8]: binds
binding [1]: binds
Substance: Rlp24 (endogenous) (from UniProt Q07915 1-199)

binding [9]: binds
Substance: Rpl4 (endogenous) (S. cerevisiae (endogenous in YDK11-5A))
